Measurements as given in publication PMC3903541.
These are yes or no findings as the source states them, for the method shown. Binding seen in cells or lysates may run through a third protein. Tags and fused reporters may be left off the sequences shown.

Biological target: CEP192-GST (aa 1501-1941) (human)
Test: pull-down; GST fusion proteins on glutathione-agarose beads; pre-cleared lysate (1 mg protein) of V5-C2orf62-transfected HEK293T cells, 2 hrs at 4°C; anti-V5 Western blot; only the target purified

B1: V5-C2orf62 (protein, UniProt Q7Z7H3 1-387)
chain: MSSKVYSTGSRAKDHQPSGPECLPLPEANAEAIDFLSSLHKEELQMLFFSETLAMVSDTGEPQGELTIEVQRGKYQEKLGMLTYCLFVHASSRGFLDKMLCGNSLLGYLSEKLELMEQHSQDFIKFLILPMERKMSLLKQDDQLAVTRSIKEGEEVKTGVTSFPWSSIKGFISEAANLVLLRVMAWRRMVPSNARFLTLDTEGKLCYLTYQNLGFQTIQVDHQQAEVFIVEQTVHAEEGIPMSCQYYLLSDGHLAKRIQVGSPGCCIITKMPILREEDEIEPRPVFEKKPLVWEEDMELYSKFLDRKEELRLGHASYLRQHPEAHALISDFLLFLLLRQPEDVVTFAAEFFGPFDPWRPSSPALGSSHRPNPFRSLEPEGDARSGAA
**Q.** With B1 as the binder, how does the binding read?
**A.** no binding
